Measurements reported in PMC8162438, “Cancer cell-selective modulation of mitochondrial respiration and metabolism by potent organogold(III) dithiocarbamates” (Chemical Science, 2020).

Tested on: MDA-MB-231
Test: Differential gene expression by RNA-sequencing
Assay type: cell-based
Conditions: MDA-MB-231, 1 μM, 12 h

For `C[N+](C)=C1[S][Au-2]2([S]1)[c]1ccccc1Cc1cccc[n+]12.F[P-](F)(F)(F)(F)F` (stereo not drawn) [2a], the “Differentially expressed genes (DEG), total” value was 3019, the Downregulated genes was 1423 and the Upregulated genes was 1596.
